Experimental findings from publication PMC8183072 are described below.

Results are given in words; binding and its absence hold for the method and conditions named. Binding can be weak; no strength is given. Tags and fused reporters may be left off the sequences shown.

In the experiment the target is T1, CaMYB31 (Capsicum annuum (from the prefix Ca and the plant material; not stated outright for this cDNA)).
T1 sequence: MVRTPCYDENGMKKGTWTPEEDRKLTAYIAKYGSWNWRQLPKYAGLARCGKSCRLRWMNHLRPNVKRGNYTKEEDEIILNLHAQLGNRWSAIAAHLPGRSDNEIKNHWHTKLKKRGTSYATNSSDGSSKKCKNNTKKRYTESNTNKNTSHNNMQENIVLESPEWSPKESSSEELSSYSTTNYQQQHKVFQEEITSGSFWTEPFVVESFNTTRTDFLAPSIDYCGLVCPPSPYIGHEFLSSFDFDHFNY
Put plainly: two-hybrid; AH109 yeast; pGADT7 and pGBKT7 fusions, forward and reverse orientation; growth on SD/-Trp-His-Leu-Ade against SD/-Trp-Leu; done by the manufacturer's instructions (Clontech).
Regarding CabHLH007 (Capsicum annuum), the binding entry is “binds”.

With CabHLH009 (Capsicum annuum), the binding result is reported as “binds”.

As for CabHLH026 (Capsicum annuum), the binding entry is on record as “binds”.

Take CabHLH063 (Capsicum annuum): the binding result was “binds weakly”.

In the case of CabHLH086 (Capsicum annuum), the binding entry is “binds weakly”.
